Measurements reported in PubChem BioAssay AID504774 (Drosophila RNAi Screening Center, 2011).

Purpose: 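Fly genes whose loss alters survival after alkylation damage to DNA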 (primary screen)
System: Drosophila Kc167 cells
Reagents: long dsRNA against Drosophila genes, about 0.25 µg dsRNA per well
Duration: about 6 days: 3 days knock-down, then 3 days with or without MMS
Treatment: methyl methanesulphonate 0.004% (w/v) for 3 days after knock-down
Detection: 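ATP-dependent luminescence as a measure of live cells in MMS-exposed wells, quantile normalised within each plate, with replicate values also given as a mean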
Direction: mean viability with MMS and viability with MMS: higher = more surviving cells after MMS
In all, the deposit lists about 23,000 reagents; this is a random part of those with a known target gene and a result. 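Values are quantile-normalised luminescence on an arbitrary scale; higher means more cells surviving MMS.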 The numbers tell different reagents against one gene apart. A plus sign joins genes that one reagent is predicted to hit.

no.	gene	reagent no.	mean viability with MMS	viability with MMS, replicate 1	viability with MMS, replicate 2
1	CG5157 (GeneID 39771)	1	3.48e6	3.98e6	3.89e6
2	CG5274 (GeneID 40257)	1	3.52e6	4.05e6	3.92e6
3	TotB (GeneID 42474)	1	3.55e6	4.14e6	3.92e6
4	CG17140 + CG17139	1	3.49e6	3.92e6	3.99e6
5	CG17140 + CG17139	2	3.59e6	3.97e6	4.17e6
6	CG30087 (GeneID 246446)	1	3.70e6	4.12e6	4.20e6
7	lncRNA:Hsromega (GeneID 3772547)	1	3.18e6	3.83e6	3.75e6
8	axed (GeneID 38741)	1	3.64e6	4.05e6	4.16e6
9	axed (GeneID 38741)	2	3.51e6	3.99e6	3.98e6
10	Hsp60C (GeneID 33796)	1	3.69e6	4.12e6	4.18e6
11	WASp (GeneID 43402)	1	3.53e6	3.90e6	4.08e6
12	Ran (GeneID 44072)	1	3.25e6	3.78e6	3.73e6
13	lmgA + lmgB	1	3.38e6	3.80e6	3.83e6
14	Dic3 (GeneID 35763)	1	3.64e6	4.18e6	4.00e6
15	SpdS (GeneID 41167)	1	3.72e6	4.15e6	4.14e6
16	CG6696 (GeneID 32856)	1	3.54e6	4.07e6	3.96e6
17	CG4151 (GeneID 31465)	1	3.60e6	4.04e6	4.14e6

Entries listed so far whose gene name starts with L or l:
gene	reagent no.	mean viability with MMS	viability with MMS, replicate 1	viability with MMS, replicate 2
lncRNA:Hsromega (GeneID 3772547)	1	3.18e6	3.83e6	3.75e6
lmgA + lmgB	1	3.38e6	3.80e6	3.83e6

Additional reagents follow.
no.	gene	reagent no.	mean viability with MMS	viability with MMS, replicate 1	viability with MMS, replicate 2
18	Sry-beta (GeneID 43570)	1	3.54e6	4.05e6	3.98e6
19	BoYb (GeneID 40512)	1	3.62e6	4.01e6	4.18e6
20	CG9119 (GeneID 38124)	1	3.56e6	4.08e6	3.99e6
21	CG43066 (GeneID 37129)	1	3.43e6	3.86e6	3.84e6
22	dysf (GeneID 43174)	1	3.50e6	3.91e6	4.01e6
23	dysf (GeneID 43174)	2	3.65e6	4.20e6	4.08e6
24	dysf (GeneID 43174)	3	3.53e6	3.95e6	4.05e6
25	dysf (GeneID 43174)	4	2.93e6	3.60e6	3.59e6
26	CG5787 (GeneID 34684)	1	3.64e6	4.17e6	4.11e6
27	CG30480 (GeneID 246640)	1	3.65e6	4.21e6	4.03e6
28	CG32374 (GeneID 38848)	1	3.59e6	3.98e6	4.17e6
29	Pgant3 (GeneID 35627)	1	3.70e6	4.29e6	4.16e6
30	CG30384 (GeneID 246584)	1	3.56e6	4.12e6	3.93e6
31	Dys (GeneID 42327)	1	3.42e6	3.81e6	3.93e6
32	Dys (GeneID 42327)	2	3.56e6	4.06e6	4.02e6
33	Dys (GeneID 42327)	3	3.57e6	3.84e6	4.25e6
34	Dys (GeneID 42327)	4	3.47e6	3.85e6	4.04e6
35	Dys (GeneID 42327)	5	3.59e6	3.87e6	4.26e6
36	Dys (GeneID 42327)	6	3.48e6	3.96e6	3.95e6
37	Dys (GeneID 42327)	7	3.49e6	4.01e6	3.92e6
38	CG4914 (GeneID 39597)	1	3.73e6	4.30e6	4.09e6
39	CanA1 (GeneID 43670)	1	3.60e6	4.09e6	4.07e6
40	CG32050 (retired record) (GeneID 39154)	1	3.51e6	3.96e6	4.00e6
41	Rnb (GeneID 43513)	1	3.37e6	3.87e6	3.80e6
42	CG34025 (GeneID 3885633)	1	3.59e6	4.19e6	3.94e6
43	CG17304 (retired record) (GeneID 41796)	1	3.14e6	3.61e6	3.57e6
44	CG17304 (retired record) (GeneID 41796)	2	3.09e6	3.20e6	3.67e6
45	CanB (GeneID 44317)	1	3.53e6	3.83e6	4.20e6
46	Hap40 (GeneID 32507)	1	3.68e6	4.17e6	4.18e6
